Test results from the supplement of paper PMC8728848.
The list shows a part of the results.

Columns and labels:
Assay in all cases: glycan array binding signal (z-score within array); higher = stronger binding
Settings in all cases: glycan notation: IUPAC condensed, linker removed
GalNAc3S(b1-4)GlcNAc3S = target: GalNAc3S(b1-4)GlcNAc3S
In short: (§1)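 Negative Z-scores can be read as non-binding. The Z-score is calculated within each array and then averaged across arrays of one protein sequence at different concentrations or buffers and across linkers. Arrays, 3228 in all, were curated from the Consortium for Functional Glycomics database and kept only where the protein sequence was available.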

[1] = target: GalNAc3S(b1-4)[Fuc(a1-3)]GlcNAc
In short: as §1

GalNAc4S6S(b1-4)GlcNAc = target: GalNAc4S6S(b1-4)GlcNAc
In short: as §1

GalNAc6S(b1-4)GlcNAc = target: GalNAc6S(b1-4)GlcNAc
In short: as §1

Glc(a1-4)Glc = target: Glc(a1-4)Glc
In short: as §1

[2] = target: Glc(a1-4)Glc(a1-4)Glc(a1-4)Glc
In short: as §1

Glc(a1-6)Glc(a1-6)Glc = target: Glc(a1-6)Glc(a1-6)Glc
In short: as §1

[3] = target: Glc(a1-6)Glc(a1-6)Glc(a1-6)Glc
In short: as §1

Glc(b1-4)Glc = target: Glc(b1-4)Glc
In short: as §1

Glc(b1-6)Glc = target: Glc(b1-6)Glc
In short: as §1

GlcA(b1-3)Gal = target: GlcA(b1-3)Gal
In short: as §1

GlcA(b1-3)GlcNAc = target: GlcA(b1-3)GlcNAc
In short: as §1

GlcA(b1-6)Gal = target: GlcA(b1-6)Gal
In short: as §1

[4] = target: GlcA3S(b1-3)Gal(b1-4)GlcNAc(b1-2)Man
In short: as §1

[5] = target: GlcA3S(b1-3)Gal(b1-4)GlcNAc(b1-3)Gal(b1-4)Glc
In short: as §1

[6] = target: GlcNAc(a1-3)Gal(b1-4)GlcNAc
In short: as §1

[7] = target: GlcNAc(a1-4)Gal(b1-3)GlcNAc
In short: as §1

[8] = target: GlcNAc(a1-4)Gal(b1-4)GalNAc
In short: as §1

[9] = target: GlcNAc(a1-4)Gal(b1-4)GlcNAc
In short: as §1

[10] = target: GlcNAc(a1-4)Gal(b1-4)GlcNAc(b1-3)Gal(b1-4)Glc
In short: as §1

[11] = target: GlcNAc(a1-4)Gal(b1-4)GlcNAc(b1-3)Gal(b1-4)GlcNAc
In short: as §1

[12] = target: GlcNAc(a1-4)Gal(b1-4)GlcNAc(b1-3)Gal(b1-4)GlcNAc(b1-3)Gal(b1-4)GlcNAc
In short: as §1

[13] = target: GlcNAc(a1-4)Gal(b1-4)GlcNAc(b1-3)Gal(b1-4)[Fuc(a1-3)]GlcNAc(b1-3)Gal(b1-4)[Fuc(a1-3)]GlcNAc
In short: as §1

[14] = target: GlcNAc(a1-6)Gal(b1-4)GlcNAc
In short: as §1

[15] = target: GlcNAc(b1-2)Gal(b1-3)GalNAc
In short: as §1

[16] = target: GlcNAc(b1-2)Man(a1-3)[GlcNAc(b1-2)Man(a1-6)]Man(b1-4)GlcNAc(b1-4)GlcNAc
In short: as §1

[17] = target: GlcNAc(b1-2)Man(a1-3)[GlcNAc(b1-2)Man(a1-6)]Man(b1-4)GlcNAc(b1-4)[Fuc(a1-6)]GlcNAc
In short: as §1

[18] = target: GlcNAc(b1-2)Man(a1-3)[GlcNAc(b1-4)][GlcNAc(b1-2)Man(a1-6)]Man(b1-4)GlcNAc(b1-4)GlcNAc
In short: as §1

[19] = target: GlcNAc(b1-2)Man(a1-3)[GlcNAc(b1-4)][GlcNAc(b1-2)Man(a1-6)]Man(b1-4)GlcNAc(b1-4)[Fuc(a1-6)]GlcNAc
In short: as §1

[20] = target: GlcNAc(b1-2)[GlcNAc(b1-4)]Man(a1-3)[GlcNAc(b1-2)Man(a1-6)]Man(b1-4)GlcNAc(b1-4)GlcNAc
In short: as §1

[21] = target: GlcNAc(b1-2)[GlcNAc(b1-4)]Man(a1-3)[GlcNAc(b1-4)][GlcNAc(b1-2)Man(a1-6)]Man(b1-4)GlcNAc(b1-4)GlcNAc
In short: as §1

[22] = target: GlcNAc(b1-2)[GlcNAc(b1-4)]Man(a1-3)[GlcNAc(b1-4)][GlcNAc(b1-2)[GlcNAc(b1-6)]Man(a1-6)]Man(b1-4)GlcNAc(b1-4)GlcNAc
In short: as §1

[23] = target: GlcNAc(b1-2)[GlcNAc(b1-4)]Man(a1-3)[GlcNAc(b1-4)][GlcNAc(b1-2)[GlcNAc(b1-6)]Man(a1-6)]Man(b1-4)GlcNAc(b1-4)[Fuc(a1-6)]GlcNAc
In short: as §1

[24] = target: GlcNAc(b1-2)[GlcNAc(b1-6)]Man(a1-6)[GlcNAc(b1-2)Man(a1-3)]Man(b1-4)GlcNAc(b1-4)GlcNAc
In short: as §1

[25] = target: GlcNAc(b1-2)[GlcNAc(b1-6)]Man(a1-6)[GlcNAc(b1-2)Man(a1-3)]Man(b1-4)GlcNAc(b1-4)[Fuc(a1-6)]GlcNAc
In short: as §1

[26] = target: GlcNAc(b1-2)[GlcNAc(b1-6)]Man(a1-6)[GlcNAc(b1-4)][GlcNAc(b1-2)Man(a1-3)]Man(b1-4)GlcNAc(b1-4)GlcNAc
In short: as §1

GlcNAc(b1-3)Fuc = target: GlcNAc(b1-3)Fuc
In short: as §1

GlcNAc(b1-3)Gal = target: GlcNAc(b1-3)Gal
In short: as §1

B1: AT5G17240(42) (Arabidopsis thaliana), Q6NQJ8 (protein)
chain: MDLEHQTMETFLRWAAEIGISDSIDSSRFRDSCLGHSLSVSDFPDAGGRGLGAARELKKGELVLKVPRKALMTTESIIAKDLKLSDAVNLHNSLSSTQILSVCLLYEMSKEKKSFWYPYLFHIPRDYDLLATFGNFEKQALQVEDAVWATEKATAKCQSEWKEAGSLMKELELKPKFRSFQAWLWASATISSRTLHVPWDSAGCLCPVGDLFNYDAPGDYSNTPQGPESANNVEEAGLVVETHSERLTDGGFEEDVNAYCLYARRNYQLGEQVLLCYGTYTNLELLEHYGFMLEENSNDKVFIPLETSLFSLASSWPKDSLYIHQDGKLSFALISTLRLWLIPQSQRDKSVMRLVYAGSQISVKNEILVMKWMSEKCGSVLRDLPTSVTEDTVLLHNIDKLQDPELRLEQKETEAFGSEVRAFLDANCLWDVTVLSGKPIEFSRKTSRMLSKWRWSVQWRLSYKRTLADCISYCNEKMNNLLGTQDRLRDL
- glycan array binding signal (z-score) (GalNAc3S(b1-4)GlcNAc3S): -0.54
- glycan array binding signal (z-score) [1]: -0.177
- glycan array binding signal (z-score) (GalNAc4S6S(b1-4)GlcNAc): 1.39
- glycan array binding signal (z-score) (GalNAc6S(b1-4)GlcNAc): -0.134
- glycan array binding signal (z-score) (Glc(a1-4)Glc): 0.098
- glycan array binding signal (z-score) [2]: 0.025
- glycan array binding signal (z-score) (Glc(a1-6)Glc(a1-6)Glc): 0.448
- glycan array binding signal (z-score) [3]: -0.147
- glycan array binding signal (z-score) (Glc(b1-4)Glc): 0.413
- glycan array binding signal (z-score) (Glc(b1-6)Glc): 0.067
- glycan array binding signal (z-score) (GlcA(b1-3)Gal): -0.785
- glycan array binding signal (z-score) (GlcA(b1-3)GlcNAc): -0.562
- glycan array binding signal (z-score) (GlcA(b1-6)Gal): -0.334
- glycan array binding signal (z-score) [4]: 0.218
- glycan array binding signal (z-score) [5]: -0.539
- glycan array binding signal (z-score) [6]: -0.754
- glycan array binding signal (z-score) [7]: -0.54
- glycan array binding signal (z-score) [8]: 0.52
- glycan array binding signal (z-score) [9]: -0.085
- glycan array binding signal (z-score) [10]: -0.607
- glycan array binding signal (z-score) [11]: 0.294
- glycan array binding signal (z-score) [12]: -0.401
- glycan array binding signal (z-score) [13]: 0.672
- glycan array binding signal (z-score) [14]: -0.755
- glycan array binding signal (z-score) [15]: -0.394
- glycan array binding signal (z-score) [16]: 0.264
- glycan array binding signal (z-score) [17]: -0.371
- glycan array binding signal (z-score) [18]: -0.853
- glycan array binding signal (z-score) [19]: -0.29
- glycan array binding signal (z-score) [20]: -0.671
- glycan array binding signal (z-score) [21]: -0.434
- glycan array binding signal (z-score) [22]: -0.118
- glycan array binding signal (z-score) [23]: -0.005
- glycan array binding signal (z-score) [24]: -0.299
- glycan array binding signal (z-score) [25]: 0.057
- glycan array binding signal (z-score) [26]: -0.567
- glycan array binding signal (z-score) (GlcNAc(b1-3)Fuc): -0.511
- glycan array binding signal (z-score) (GlcNAc(b1-3)Gal): -0.21
